Experimental data: PMC7862700
Only a part is listed here, and it is no random draw. For part of these data: At the low end of the ranking the order means little. Some of the results follow. For part of these data: The source does not settle which construct or isoform was used.

By UniProt entry, the sequences of proteins in these tests, tags left out. Where a name states a change or a piece, a line headed by the entry shows the natural chain unless it says otherwise.
UniProt P32519: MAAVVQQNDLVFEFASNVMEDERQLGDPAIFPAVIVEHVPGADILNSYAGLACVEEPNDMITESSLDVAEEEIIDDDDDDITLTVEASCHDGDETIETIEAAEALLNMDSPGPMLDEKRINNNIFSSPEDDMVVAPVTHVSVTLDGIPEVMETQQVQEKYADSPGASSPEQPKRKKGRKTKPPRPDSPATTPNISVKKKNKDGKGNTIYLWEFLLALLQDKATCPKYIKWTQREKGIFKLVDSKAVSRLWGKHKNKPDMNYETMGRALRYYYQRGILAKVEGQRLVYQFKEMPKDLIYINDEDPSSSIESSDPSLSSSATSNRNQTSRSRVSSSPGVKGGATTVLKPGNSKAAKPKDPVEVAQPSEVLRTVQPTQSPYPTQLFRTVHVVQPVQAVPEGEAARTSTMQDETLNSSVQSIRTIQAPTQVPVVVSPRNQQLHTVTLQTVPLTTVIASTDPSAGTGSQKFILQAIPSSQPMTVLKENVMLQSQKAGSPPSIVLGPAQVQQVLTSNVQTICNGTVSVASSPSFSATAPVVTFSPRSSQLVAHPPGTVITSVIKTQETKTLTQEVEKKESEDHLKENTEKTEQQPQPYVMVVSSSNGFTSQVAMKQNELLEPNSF
UniProt P50549: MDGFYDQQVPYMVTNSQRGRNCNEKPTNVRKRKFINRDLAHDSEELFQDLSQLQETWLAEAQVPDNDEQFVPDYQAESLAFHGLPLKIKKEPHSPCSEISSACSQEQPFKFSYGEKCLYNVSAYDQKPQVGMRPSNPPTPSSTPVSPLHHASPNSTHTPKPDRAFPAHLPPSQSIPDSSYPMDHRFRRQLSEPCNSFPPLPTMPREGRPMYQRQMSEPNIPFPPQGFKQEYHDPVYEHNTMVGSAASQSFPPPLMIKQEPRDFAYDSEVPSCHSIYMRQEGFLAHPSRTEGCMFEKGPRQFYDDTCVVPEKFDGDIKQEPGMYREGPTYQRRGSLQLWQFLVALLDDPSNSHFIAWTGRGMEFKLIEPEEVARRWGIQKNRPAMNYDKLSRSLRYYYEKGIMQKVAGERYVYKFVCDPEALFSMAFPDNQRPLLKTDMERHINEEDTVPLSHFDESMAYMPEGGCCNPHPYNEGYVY

biological target: ELF1 (UniProt P32519); assay: DAPPL (digital affinity profiling via proximity ligation, sequencing); settings: 10 mM Tris-HCl pH 7.5, 50 mM NaCl, 1 mM DTT, 4% glycerol, room temperature, 30 min; GST-TFs on glutathione beads, 16-mer random dsDNA library, 0.1% …; high values mean tight binding; double strand, one strand shown; scale: fold enrichment (6-mer frequency, TF over GST control)

| Sequence | binding signal |
| --- | --- |
| GCGCTC | 1.12 |
| CATCCG | 1.86 |
| GAAATA | 1.45 |
| AAAAAA | 1.32 |
| TGTGGA | 1.11 |
| TCTCCG | 1.6 |
| CTTTTG | 1.34 |
| CCTCAT | 1.35 |
| TTCGAA | 1.28 |
| TACCGA | 1.17 |
| CACTTG | 1.33 |
| CCTACT | 1.73 |
| GGTCCT | 1.06 |
| AATGCT | 1.16 |
| CTTATG | 1.38 |

biological target: T1, ETV4 (UniProt P43268); assay: as above; settings: 10 mM Tris-HCl pH 7.5, 50 mM NaCl, 1 mM DTT, 4% glycerol, room temperature, 30 min; GST-TFs on glutathione beads, 16-mer random dsDNA library, 0.1% …; high values mean tight binding; double strand, one strand shown; scale: fold enrichment (6-mer frequency, TF over GST control)
T1 sequence: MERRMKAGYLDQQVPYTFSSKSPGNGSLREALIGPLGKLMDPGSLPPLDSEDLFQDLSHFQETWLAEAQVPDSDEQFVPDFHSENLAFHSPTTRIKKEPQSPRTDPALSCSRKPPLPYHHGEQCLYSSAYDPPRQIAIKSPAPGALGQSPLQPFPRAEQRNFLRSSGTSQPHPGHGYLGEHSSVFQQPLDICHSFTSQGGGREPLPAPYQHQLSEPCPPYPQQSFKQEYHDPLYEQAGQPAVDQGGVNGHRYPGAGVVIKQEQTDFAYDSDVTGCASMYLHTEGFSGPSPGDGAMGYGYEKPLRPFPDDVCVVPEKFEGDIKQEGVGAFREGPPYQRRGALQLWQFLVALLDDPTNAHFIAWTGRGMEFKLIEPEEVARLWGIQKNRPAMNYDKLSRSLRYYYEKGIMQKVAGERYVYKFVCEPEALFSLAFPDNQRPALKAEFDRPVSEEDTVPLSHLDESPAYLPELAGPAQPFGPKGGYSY

| Sequence | binding signal |
| --- | --- |
| GCGCTC | 1.29 |
| TGCTTT | 1.11 |
| GCGACT | 1.29 |
| CATCCG | 2.29 |
| GAAATA | 1.47 |
| AAAAAA | 1.25 |
| GAACTC | 1.27 |
| TGTGGA | 1.07 |
| TCTCCG | 1.56 |
| CTTGTC | 1.33 |
| CTTTTG | 1.41 |
| TCCCTA | 1.38 |
| GCATTC | 1.15 |
| TCCTAT | 1.43 |
| CACCAT | 1.11 |
| ACCAAC | 1.19 |
| CCTCAT | 1.38 |
| ACTACT | 1.21 |
| TTCGAA | 1.12 |
| CGCCCT | 1.48 |

| Sequence | binding signal |
| --- | --- |
| TCTAAA | 1.18 |
| TAATGC | 1.13 |
| TACCGA | 1.08 |
| CACTTG | 1.38 |
| ATCATT | 1.06 |
| GTATTT | 1.6 |
| ATAGTA | 1.16 |
| CGTATT | 1.09 |
| CCTACT | 1.74 |
| TTCAAG | 1.29 |
| CAACAT | 1.21 |
| GGTCCT | 0.956 |
| CCTATG | 1.44 |
| TCTGTT | 1.45 |
| AATGCT | 1.26 |
| CGTCCC | 1.3 |
| CTTATG | 1.56 |
| AATTTA | 1.21 |
| GGCTCA | 1.25 |

biological target: ETV1 (UniProt P50549); assay: as above; settings: 10 mM Tris-HCl pH 7.5, 50 mM NaCl, 1 mM DTT, 4% glycerol, room temperature, 30 min; GST-TFs on glutathione beads, 16-mer random dsDNA library, 0.1% …; high values mean tight binding; double strand, one strand shown; scale: fold enrichment (6-mer frequency, TF over GST control)

| Sequence | binding signal |
| --- | --- |
| GCGCTC | 0.994 |
| CATCCG | 2.19 |
| GAAATA | 1.54 |
| AAAAAA | 1.27 |
| TGTGGA | 1.03 |
| TCTCCG | 1.48 |
| CTTTTG | 1.3 |
| CCTCAT | 1.37 |
| TTCGAA | 1.1 |
| TACCGA | 1.24 |
| CACTTG | 1.36 |
| CCTACT | 1.49 |
| GGTCCT | 0.93 |
| AATGCT | 1.24 |
| CTTATG | 1.58 |

biological target: T2, ERF (UniProt P50548); assay: as above; settings: 10 mM Tris-HCl pH 7.5, 50 mM NaCl, 1 mM DTT, 4% glycerol, room temperature, 30 min; GST-TFs on glutathione beads, 16-mer random dsDNA library, 0.1% …; high values mean tight binding; double strand, one strand shown; scale: fold enrichment (6-mer frequency, TF over GST control)
T2 sequence: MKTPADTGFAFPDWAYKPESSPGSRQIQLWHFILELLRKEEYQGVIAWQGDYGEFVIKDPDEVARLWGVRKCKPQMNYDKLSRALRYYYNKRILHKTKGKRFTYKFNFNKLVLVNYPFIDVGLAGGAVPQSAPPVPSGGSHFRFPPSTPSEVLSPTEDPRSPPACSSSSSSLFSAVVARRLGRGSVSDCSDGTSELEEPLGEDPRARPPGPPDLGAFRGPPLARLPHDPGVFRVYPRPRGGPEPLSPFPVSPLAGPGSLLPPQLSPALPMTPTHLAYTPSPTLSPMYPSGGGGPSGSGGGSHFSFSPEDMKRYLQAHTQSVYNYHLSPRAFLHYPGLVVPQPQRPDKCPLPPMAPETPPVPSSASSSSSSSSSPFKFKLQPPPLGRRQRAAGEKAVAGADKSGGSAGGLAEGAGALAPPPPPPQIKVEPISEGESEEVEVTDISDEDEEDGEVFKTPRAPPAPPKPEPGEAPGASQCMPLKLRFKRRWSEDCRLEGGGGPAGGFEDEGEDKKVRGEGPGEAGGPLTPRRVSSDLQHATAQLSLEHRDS

| Sequence | binding signal |
| --- | --- |
| TGCTTT | 1.29 |
| GCGACT | 1.43 |
| GAACTC | 1.11 |
| CTTGTC | 1.44 |
| TCCCTA | 1.43 |
| GCATTC | 1.16 |
| TCCTAT | 1.56 |
| CACCAT | 1.12 |
| ACCAAC | 1.24 |
| ACTACT | 1.33 |
| CGCCCT | 1.37 |
| TCTAAA | 1.17 |
| TAATGC | 1.07 |
| ATCATT | 1.13 |
| GTATTT | 1.47 |
| ATAGTA | 1.23 |
| CGTATT | 1.08 |
| TTCAAG | 1.27 |
| CAACAT | 1.23 |
| CCTATG | 1.11 |
| TCTGTT | 1.43 |
| CGTCCC | 1.35 |
| AATTTA | 1.27 |
| GGCTCA | 1.3 |
